From paper PMC1325028 come the findings set out here.

Sequences of proteins named here, by UniProt entry; tags and fusion partners are left off. A change or cut given only in a name is not applied to a line headed by its entry.
UniProt P28829: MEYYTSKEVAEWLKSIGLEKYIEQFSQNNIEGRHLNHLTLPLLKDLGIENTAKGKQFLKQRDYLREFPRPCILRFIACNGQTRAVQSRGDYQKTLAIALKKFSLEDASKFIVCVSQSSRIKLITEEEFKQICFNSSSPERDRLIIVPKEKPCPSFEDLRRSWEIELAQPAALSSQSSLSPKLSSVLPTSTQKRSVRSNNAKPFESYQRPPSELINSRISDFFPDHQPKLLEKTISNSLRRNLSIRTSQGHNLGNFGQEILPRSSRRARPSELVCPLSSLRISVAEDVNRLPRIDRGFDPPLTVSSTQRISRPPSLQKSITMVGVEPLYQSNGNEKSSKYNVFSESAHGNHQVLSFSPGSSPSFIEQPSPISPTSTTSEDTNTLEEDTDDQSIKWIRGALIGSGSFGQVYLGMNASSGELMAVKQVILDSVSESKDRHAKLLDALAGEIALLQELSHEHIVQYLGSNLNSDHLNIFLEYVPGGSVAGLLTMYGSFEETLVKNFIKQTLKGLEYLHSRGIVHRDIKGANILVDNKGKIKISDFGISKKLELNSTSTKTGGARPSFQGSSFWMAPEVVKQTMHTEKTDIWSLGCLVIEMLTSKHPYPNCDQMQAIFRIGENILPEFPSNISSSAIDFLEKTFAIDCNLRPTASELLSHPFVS
UniProt P15064: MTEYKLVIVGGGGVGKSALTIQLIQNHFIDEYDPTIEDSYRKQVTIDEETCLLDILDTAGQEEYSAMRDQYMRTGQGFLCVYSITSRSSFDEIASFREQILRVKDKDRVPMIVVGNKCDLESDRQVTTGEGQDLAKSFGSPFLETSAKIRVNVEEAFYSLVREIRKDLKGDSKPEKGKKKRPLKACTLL

Results are given in words; binding and its absence hold for the method and conditions named. Binding seen in cells or lysates may run through a third protein. Binding can be weak; no strength is given.

In this assay the target is GST-Byr2 (RBD), Ras Binding Domain from S. pombe Byr2 (S. pombe) (UniProt P28829). The assay can be described thus: pull-down; 0.8 mg lysate of AX2 or HSB61 cells (pulsed with cAMP for 6 h or 10 h, stimulated with 200 nM cAMP) incubated with 100 ug GST-Byr2 (RBD) at 4°C for 1 h in HK-LB (sodium phosphate pH 7.2, 1% Triton X-100, 10% glycerol, 150 mM NaCl, 10 mM MgCl2); beads washed three times; blot with RasC or RasG antibody; only the target purified.

In the case of “RasG (activated, GTP-bound) (from UniProt P15064 1-189)”, the binding entry is recorded as “binds”.

B1: RasC (activated, GTP-bound) (protein, UniProt P32253 1-189)
chain: MSKLLKLVIVGDGGVGKSALTIQLTQNQFIAEYDPTIENSYRKQVNIDEEVYMLDILDTAGQEEYSAMRDQYIRSGRGFLIVYSIISRASFEAVTTFREQILRVKDLSTYPIVIIGNKADLPDKDRKVPPMEGKELAKSFGAPFLETSAKSRVNVEEAFFTLVREIKRWNQNPQNEEMLPPKKRGCIIL
Regarding B1, the binding entry was “binds”.
